These results are taken from paper PMC7022529.

Chains of the proteins cited; added tags and fusions are not shown.
UniProt P48431: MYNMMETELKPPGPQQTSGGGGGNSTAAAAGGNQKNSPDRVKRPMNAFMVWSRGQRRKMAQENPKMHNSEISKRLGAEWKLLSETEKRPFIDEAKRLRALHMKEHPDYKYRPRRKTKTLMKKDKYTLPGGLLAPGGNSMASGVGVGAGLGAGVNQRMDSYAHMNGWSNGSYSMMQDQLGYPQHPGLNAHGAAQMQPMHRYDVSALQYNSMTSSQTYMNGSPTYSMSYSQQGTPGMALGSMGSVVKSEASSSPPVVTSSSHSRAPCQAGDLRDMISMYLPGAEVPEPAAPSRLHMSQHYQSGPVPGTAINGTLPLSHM
UniProt Q01860: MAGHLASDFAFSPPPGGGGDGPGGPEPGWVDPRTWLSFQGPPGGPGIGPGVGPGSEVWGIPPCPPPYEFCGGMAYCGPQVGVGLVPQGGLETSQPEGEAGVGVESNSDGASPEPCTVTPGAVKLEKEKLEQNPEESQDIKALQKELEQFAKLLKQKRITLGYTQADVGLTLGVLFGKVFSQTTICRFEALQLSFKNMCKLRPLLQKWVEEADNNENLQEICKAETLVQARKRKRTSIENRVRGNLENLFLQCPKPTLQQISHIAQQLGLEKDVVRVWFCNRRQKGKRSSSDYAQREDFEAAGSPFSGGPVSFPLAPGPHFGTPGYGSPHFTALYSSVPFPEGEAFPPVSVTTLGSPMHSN

These are yes or no findings as the source states them, for the method shown. In cells and extracts the contact can be indirect. Here binding means that the protein was enriched with, or labelled near, the bait; the list need not be complete.

This test deals with BirA-Sox2 (UniProt P48431). Kind of test: proximity labelling; proximity-utilizing biotinylation (PUB): BAP fusion and BirA fusion coexpressed in HEK293T cells (six-well plates), biotin pulse 30 min; Western blot with streptavidin-HRP, anti-His-HRP for the total BAP fusion. Background: A western blot detects proteins with antibodies after separation by electrophoresis.

With BAP-Oct4 (from UniProt Q01860 1-360), the binding result was “binds”.
